Drawing on article PMC7819943, “Rice protein-binding microarrays: a tool to detect cis-acting elements near promoter regions in rice”, this text covers binding signal for 42 sequences.

By UniProt entry, the sequences of proteins in these tests, tags left out.
UniProt Q0JBA9, entry or part of it: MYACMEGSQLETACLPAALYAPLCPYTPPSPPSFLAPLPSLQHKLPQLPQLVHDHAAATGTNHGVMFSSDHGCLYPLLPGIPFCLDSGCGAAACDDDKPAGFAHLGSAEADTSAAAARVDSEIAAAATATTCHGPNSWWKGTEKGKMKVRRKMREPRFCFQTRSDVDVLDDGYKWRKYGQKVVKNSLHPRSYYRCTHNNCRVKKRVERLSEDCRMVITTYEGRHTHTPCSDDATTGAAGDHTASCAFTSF

The other results are listed elsewhere or left out.

In the assay the target is OsWRKY34 (Oryza sativa, UniProt Q0JBA9 1-250). Put plainly: protein-binding microarray (RPBM); PBS, 2% BSA, 51.3 ng/ul salmon testes DNA, 50 uM zinc acetate, 200 nM TF, 25 C, 1 h; high values mean tight binding. Conditions: protein: recombinant; tags: N-terminal polyhistidine and DsRed monomer fusion (pET32a); label: CyDye5-dUTP incorporated in the synthesized complementary strand; 3' TTTTT single-stranded linker to array surface; dsDNA, one strand shown. Summed up: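 The binding signal for each feature is its fluorescence intensity in arbitrary units. An Axon 4000B scanner was used to read a custom Agilent array that had been made double-stranded with Cy5-dUTP primer extension, blocked with 2% BSA, incubated at 25 °C for 1 h with 200 nM protein in PBS, 2% BSA, salmon testes DNA and 50 µM zinc acetate, and washed. The protein was an N-terminal polyhistidine–DsRed transcription factor fusion from E. coli BL21-CodonPlus, purified on Ni–NTA.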
Consider “TAAGTCCATCCACAATTTCTTTCTGTCAGTTTCCTTGACTCGGAGTCACCTAGTGCAG”, for which the binding signal is 9620 fluorescence intensity (a.u.).

As to “CACCACTCACGCCATCCATCCATCCATCCATCCACCTCTGCGGAGTCACCTAGTGCAG”, the binding signal is 8630 fluorescence intensity (a.u.).

“TTTATACTTGGACTCTTCTTTTCTTTTTTTTCTTTTTCTCCGGAGTCACCTAGTGCAG”: the binding signal is 10700 fluorescence intensity (a.u.).

With “TTATTGAGTGGGATTTCTCGTTCGGATTTTGATTGTGTTTCGGAGTCACCTAGTGCAG”, the binding signal is 8380 fluorescence intensity (a.u.).

With “GTGGTTGTCTCGCACCCCACCGCCGCTGCTCTCGTTGTTGCGGAGTCACCTAGTGCAG”, the binding signal is 8080 fluorescence intensity (a.u.).

Regarding “CCAGTCGCCATCGCTCTCTTCCACTGGTTCGCTCTCTCCGCGGAGTCACCTAGTGCAG”, the binding signal was 9510 fluorescence intensity (a.u.).

With “TAATTTTTTTTCCTATCATATGATTTATTGTTAAATATACCGGAGTCACCTAGTGCAG”, the binding signal is 10300 fluorescence intensity (a.u.).

With “TGTTCATTCATTTCCTCATCTTTTCTGTGCTCCTTTACAGCGGAGTCACCTAGTGCAG”, the binding signal was 9790 fluorescence intensity (a.u.).

“CCGTATATTTTTTCCTCTCATTTTCCCCTTTTTCTTTTTGCGGAGTCACCTAGTGCAG”: the binding signal was 8160 fluorescence intensity (a.u.).

In the case of “GCAAGCTGTACTTTTTAAGCATTTCCCCTACGGGATTTTACGGAGTCACCTAGTGCAG”, the binding signal was 8650 fluorescence intensity (a.u.).

“GGGTGTTATGAGTTGTGTTTGCTGTAGCTTGTCAGCTGTTCGGAGTCACCTAGTGCAG”: the binding signal is 10600 fluorescence intensity (a.u.).

In the case of “GCCGGTGCTCCGCCCGTCGACCAAGCCACTGTGCGCCATGCGGAGTCACCTAGTGCAG”, the binding signal was 8450 fluorescence intensity (a.u.).

In the case of “GTAGGGTAGGGCAGGGCAGAAGAGGTGAGAGGAAAGCAAGCGGAGTCACCTAGTGCAG”, the binding signal is 9230 fluorescence intensity (a.u.).

On to “ATGTCATATGATAAAGGGTTCGCATTGAATTTTAACTAATCGGAGTCACCTAGTGCAG”, for which the binding signal was 8720 fluorescence intensity (a.u.).

Turning to “CACCCTCACTCGCTCGCCATCTTGTCAGCGTACGGACCCTCGGAGTCACCTAGTGCAG”, the binding signal was 9370 fluorescence intensity (a.u.).

With “TGGGTATTTGATTCCTATCTCACTGTATGTGTCAATTGAACGGAGTCACCTAGTGCAG”, the binding signal is 9990 fluorescence intensity (a.u.).

As for “GAACTTGTTTTTTGTATTTTTCTTTTCGGTAGCTACTTTCCGGAGTCACCTAGTGCAG”, the binding signal is 8020 fluorescence intensity (a.u.).

For the sequence “ACTATTACTACTACTTCAGGTTCTTGCTGTTGATGCATGCCGGAGTCACCTAGTGCAG”, the binding signal is 8730 fluorescence intensity (a.u.).

As for “TCTTTTACTCGGCGCGCCTTGTCTCTCTCTCTCAGTACGACGGAGTCACCTAGTGCAG”, the binding signal is 9570 fluorescence intensity (a.u.).

With “GTGTGTGTGGTAGATGTAAGATTGGGAACTTTGTTGGTAACGGAGTCACCTAGTGCAG”, the binding signal is 11900 fluorescence intensity (a.u.).

Take “CACGTACCCAACCAAACAAGCACCGCCTTGCGCCAGCCATCGGAGTCACCTAGTGCAG”: the binding signal was 8180 fluorescence intensity (a.u.).

As to “GCCATAGTTCATTATGTTGGTAGGATTAATTTTTTTTTTTCGGAGTCACCTAGTGCAG”, the binding signal is 8310 fluorescence intensity (a.u.).

On to “TGATTTTTTCTCACATGTTTGACCATTTGTCTTATTCAAACGGAGTCACCTAGTGCAG”, for which the binding signal is 10100 fluorescence intensity (a.u.).

For the sequence “ACTAGGGTTCTCTTCTCACTCCATCGCTAGCGGCGGCTCACGGAGTCACCTAGTGCAG”, the binding signal was 8340 fluorescence intensity (a.u.).

Regarding “AACCCTTTCCCGCTGCTTCTGTTCGCCGCCGCCGTGCTCCCGGAGTCACCTAGTGCAG”, the binding signal is 9200 fluorescence intensity (a.u.).

With “TACGTCGTCCCATGCTACTGCTCCGGGCTCCAGCATCCACCGGAGTCACCTAGTGCAG”, the binding signal was 8770 fluorescence intensity (a.u.).

In the case of “TTGCTCTCCTCTCTGGATTGATGTGTTCGTTTGGCCATTCCGGAGTCACCTAGTGCAG”, the binding signal is 8940 fluorescence intensity (a.u.).

In the case of “GAGATGGTGGTGGCGGCGGGGCACGGCGGGCGGCGGAGGCCGGAGTCACCTAGTGCAG”, the binding signal is 11800 fluorescence intensity (a.u.).

As for “TTTTCCTCTGTTGTTGATAATGTGCCGTTTTGACTGACTCCGGAGTCACCTAGTGCAG”, the binding signal is 8100 fluorescence intensity (a.u.).

Regarding “AAACGGTCAACCCACTTTCCCACCCTCTCCATTTTTTACGCGGAGTCACCTAGTGCAG”, the binding signal was 11200 fluorescence intensity (a.u.).

On to “TATATATATATATATATATATATATATATCCCAAAAATTGCGGAGTCACCTAGTGCAG”, for which the binding signal was 10900 fluorescence intensity (a.u.).

In the case of “CCCCTAGTTGTAAAGCATTATTGGTTCTGTTTCTGCACTTCGGAGTCACCTAGTGCAG”, the binding signal was 8350 fluorescence intensity (a.u.).

Regarding “CTACCCGATTGCAAGCTCATCGATGTCGATTTCATTCATCCGGAGTCACCTAGTGCAG”, the binding signal is 10300 fluorescence intensity (a.u.).

On to “CTACTTACCCTTTTTAATGCAAGCATCAATCCATTGCTTTCGGAGTCACCTAGTGCAG”, for which the binding signal is 9470 fluorescence intensity (a.u.).

As to “CATTCCGGTTGGTGTTTTTCGCTTGATTTGTACTACTATTCGGAGTCACCTAGTGCAG”, the binding signal was 18500 fluorescence intensity (a.u.).

With “TATCTGTCCTCTTCGTCATATATAACTCTCTTGACGAACTCGGAGTCACCTAGTGCAG”, the binding signal is 12500 fluorescence intensity (a.u.).

Take “CCCACGCTTCCGGGCGCGCCTCCTTTTTGTCTTAACCAAGCGGAGTCACCTAGTGCAG”: the binding signal was 10400 fluorescence intensity (a.u.).

Consider “TCATACCAACTACATCCTCCTTGCTACATCAATTGTATTCCGGAGTCACCTAGTGCAG”, for which the binding signal is 8730 fluorescence intensity (a.u.).

As to “CAGCTGTTCTGATCGCTTCTTGTGGCTTCTGTGCCGTGCTCGGAGTCACCTAGTGCAG”, the binding signal is 8440 fluorescence intensity (a.u.).

In the case of “TGCCATATATCACCTGCAGGCACTACTAGTAACTCTCACTCGGAGTCACCTAGTGCAG”, the binding signal is 8830 fluorescence intensity (a.u.).

For “CCATTATCCGCCGCCGCCGCCGAGCATAGCCCATCGCACACGGAGTCACCTAGTGCAG”, the binding signal is 11600 fluorescence intensity (a.u.).

For “TTCCGCCTCTGCCTCGTCCAAGTCCAAGCCAACTACCTAACGGAGTCACCTAGTGCAG”, the binding signal is 8160 fluorescence intensity (a.u.).
